Data taken from PubChem BioAssay AID652054 (National Center for Advancing Translational Sciences (NCATS), 2013).
Among all 360,000 compounds or so, about 9,100 (2.5%) were called active. This list was built around the results that the source calls inconclusive (neither active nor inactive); the mix of calls is not that of the screen. No stated cut-off is given here; in the data, active means max response below about -50%; inconclusive means no clear call, values can overlap the other calls; inactive means above that.

Protein sequences, listed by entry. Tags and fused reporters are not part of them.
UniProt P35462, whole entry, looked up: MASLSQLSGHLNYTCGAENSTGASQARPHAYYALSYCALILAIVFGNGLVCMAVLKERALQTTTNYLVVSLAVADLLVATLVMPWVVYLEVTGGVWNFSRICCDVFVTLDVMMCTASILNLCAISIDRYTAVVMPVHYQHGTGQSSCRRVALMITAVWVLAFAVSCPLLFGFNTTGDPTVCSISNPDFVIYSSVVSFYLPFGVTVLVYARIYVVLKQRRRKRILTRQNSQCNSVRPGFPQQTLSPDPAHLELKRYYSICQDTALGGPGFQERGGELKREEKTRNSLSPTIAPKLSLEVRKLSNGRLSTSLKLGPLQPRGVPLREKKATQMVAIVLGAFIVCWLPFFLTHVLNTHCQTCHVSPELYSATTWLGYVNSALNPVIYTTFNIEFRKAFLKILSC

Target: D(3) dopamine receptor (Homo sapiens) (UniProt P35462)
Assay: qHTS of D3 Dopamine Receptor Antagonist: qHTS
Conditions: D3R cells, DiscoveRx beta-arrestin luminescence, antagonist mode; active compounds read low
Method in brief: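 Cells expressing the human receptor were seeded at 1500 cells/well, incubated overnight at 37 degrees C in 5% CO2, then exposed to library compounds with dopamine controls for 90 minutes at 37 degrees C before luminescent detection.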
On the % scale 0 is the no-effect control and ±100 the full control effect.

| SMILES | max response, negative = inhibition |
| --- | --- |
| COc1ccc(OCC(O)CN2CCN(c3ccc(OC)cc3)CC2)cc1 (configuration not stated) | inconclusive: -30.8% |
| CC(=O)N1N=C(c2ccccc2)CC1c1cccc([N+](=O)[O-])c1 (configuration not stated) | inconclusive: -36.9% |
| CCOc1ccc(N=Cc2c(O)c3ccccc3oc2=O)cc1 | inconclusive: -32.1% |
| Cc1ccc(C2CC(c3cccc(Cl)c3)n3nc(N)nc3N2)cc1 (configuration not stated) | inactive: -2.22% |
| Cc1ccc(Oc2ccccc2NC(=O)CN2C(=O)NC3(CCCC3)C2=O)cc1 | inconclusive: -34.8% |
| Cc1ccc(C(=O)OCc2cn3ccccc3n2)cc1 | inconclusive: -30.6% |
| CN(C)c1ncnc2c1NC1=C(S2)C(=NCCCC(=O)O)CC(C)(C)C1 | inconclusive: -45.5% |
| COc1ccccc1NC(=O)c1ccc(NC(=O)CSc2ncn[nH]2)cc1 | inactive: -10% |
| Cc1ccc(S(=O)(=O)N(C)C)cc1NC(=S)NC(C)CCCC(C)C (configuration not stated) | inconclusive: -45.8% |
| CCN(CC(=O)Nc1ccc2c(c1)OCCO2)CC(=O)Nc1ccccc1C(F)(F)F | inconclusive: -33.5% |
| COc1ccccc1C(c1nnnn1Cc1ccco1)N1CCN(c2cccc(C)c2C)CC1 (configuration not stated) | inactive: -18.9% |
| CC(C)C[C@H]1CN(CCCC[C@H]2CNC(=O)C(=O)N2CCC2CCCCC2)C(=O)C(=O)N1CCC1CCCCC1 | inactive: -8.14% |
| NS(=O)(=O)c1ccc(CCNC(=O)NC23CC4CC(CC(C4)C2)C3)cc1 | inactive: 6.73% |
| CCOC(=O)C1=CCN(S(=O)(=O)c2ccccc2C)C1c1ccc(Cl)c(Cl)c1 (configuration not stated) | inconclusive: -40.5% |
| COc1cccc(Cn2cc(C(=O)NCCN(C)C)nn2)c1 | inactive: 14% |
| O=C(N/N=C/c1sc(N2CCCCC2)nc1-c1cccs1)c1cccnc1 | inconclusive: -37.7% |
| Cc1ccc(C)c(CN2C(=O)NC3(CCCCCC3)C2=O)c1 | inconclusive: -33.5% |
| CCC(=O)Oc1ccc2ccccc2c1CNC(=O)c1ccccc1 | inactive: -24.2% |
| CCNC(=O)N(C)c1c(CC)nc2ccc(C(=O)Nc3cccc(OCC(=O)N(C)C)c3)cn12 | inconclusive: -33% |

| SMILES | max response, negative = inhibition |
| --- | --- |
| S=c1[nH]nc(-c2ccccn2)n1/N=C/c1cccc(Cl)c1 | inconclusive: -45.3% |
| CCN1CCc2c(C#N)c(N3CCOCC3)nc(NCCO)c2C1 | inactive: -10.2% |
| CCN1C(=O)C2C(c3cccc(F)c3)NC(CC)(C(=O)OC)C2C1=O (configuration not stated) | inconclusive: -32.9% |
| CCCCCCCCCn1c2c(c(=N)c3c1CCC3)CCC2 | active: -55.6% |
| O=C(Cn1c(SCC(=O)N2CCc3ccccc32)nc2ccccc21)NC1CCCC1 | active: -76.4% |
| CC(=O)N(/N=C1\Sc2ccccc2C1=O)c1ccccc1 | active: -58.6% |
| CCN(CC)S(=O)(=O)c1ccc(NS(=O)(=O)c2ccc(C)c(C)c2)cc1 | inconclusive: -40.4% |
| CC(C)CC(=O)N1CCN(CC2CC=CCC2)CC1 (configuration not stated) | inconclusive: -47.2% |
| CCCOc1ccc(C(=O)Nc2nc(C)c(Cc3ccc4c(c3)OCO4)s2)cc1 | inconclusive: -31.3% |
| Cc1ccc(-c2csc(NC(=O)CSc3nc4ccccc4c(=O)n3CCCN(C)C)n2)cc1 | inactive: -11.2% |
| CCCCCSc1nnc(-c2cc(Br)ccc2N)c(=O)[nH]1 | inconclusive: -48.9% |
| COC(=O)c1ccc(CN2CCC(CO)(Cc3ccccc3Cl)CC2)cc1 | inactive: -29% |
| Cc1ccccc1C(=O)OCCN(C)Cc1ccccc1 | active: -70% |
| CC1(C(=O)NS(=O)(=O)c2cccs2)CCN1C(=O)CCc1ccc(Cl)cc1Cl (configuration not stated) | inactive: 16% |
| CCCc1nnc(NC(=O)c2cc3ccccc3oc2=O)s1 | inactive: 0% |
| O=C(OCn1ncc(Br)c(Br)c1=O)c1ccccc1Cl | active: -88.4% |
| COc1ccc(/C=N/n2c(-c3ccccc3)n[nH]c2=S)cc1 | inconclusive: -43.8% |
| COCc1cc(=O)n2[nH]c(-c3cccs3)cc2n1 | inconclusive: -31.8% |
| CCCCn1c(=O)c2ccccc2c2ccccc2c1=O | inconclusive: -36.7% |

| SMILES | max response, negative = inhibition |
| --- | --- |
| C=CCc1ccc(OCCCCNC2CCCC2)c(OC)c1 | active: -68.8% |
| Cc1cc(C)c(C)c(OCCCN(C)C)c1 | inconclusive: -31% |
| O=C(COc1ccc(F)cc1F)NNC(=O)Nc1cccc([N+](=O)[O-])c1 | inconclusive: -31.8% |
| COc1cc(CN2CCCC(N3CCN(c4ccccc4C)CC3)C2)ccc1O (configuration not stated) | inconclusive: -45.6% |
| CCOc1ccc(Br)cc1C1C(C(=O)OC)=C(N)Oc2cc(N(C)C)ccc21 (configuration not stated) | inconclusive: -47.3% |
| O=C(c1ccccc1)C(C(=O)N1CCc2ccccc2C1)n1ccccc1=O (configuration not stated) | inactive: -15.9% |
| COc1ccc(C2CC(=O)N(CCCN(C)CCc3ccc(OC)c(OC)c3)C2)cc1 (configuration not stated) | inactive: -6.12% |
| CCOC(=O)C1(C(F)(F)F)N=C(c2cccnc2)OC(N2CCOCC2)=N1 (configuration not stated) | active: -58.9% |
| COC(=O)[C@H](C(C)C)N(Cc1ccccc1)S(=O)(=O)CCN1CCN(c2ccccc2)CC1 | inconclusive: -31.6% |
| O=C(COc1cccc(-n2cnnn2)c1)NC1CCCCC1 | inactive: -3.11% |
| CCCOc1cccc(C(=O)N(Cc2ccc(OC)c(OC)c2)C2CCS(=O)(=O)C2)c1 (configuration not stated) | inactive: -28.3% |
| Cc1ccccc1Cn1cccc1/C=C1/C(=N)N2C=CSC2=NC1=O | inconclusive: -43.3% |
| Cc1ccc(C(=O)Nc2ccc(C)c(S(=O)(=O)N3CCOCC3)c2)c(C)c1 | inactive: 4.4% |
| Cc1cc(C)cc(NC(=O)N2CCCC2C(=O)Nc2ccc(-n3cnnn3)cc2)c1 (configuration not stated) | inconclusive: -40.3% |
| O=C(Nc1nccs1)c1ccc(COc2ccc(F)cc2)o1 | inactive: 19.5% |
| c1ccc(-c2csc(Nc3cccnc3)n2)nc1 | inconclusive: -30.7% |
| O=C(C1CCN(CCCc2ccccc2)CC1)N(CCc1ccccc1)Cc1ccccc1 | inconclusive: -36.8% |
| CCN1CCN(C(=O)/C=C/c2ccc(F)cc2)CC1 | inconclusive: -49.3% |
| CC1=C(C(=O)N(C)C)CC(CC(=O)NCCc2ccccn2)C(=O)N1Cc1ccccc1 (configuration not stated) | inactive: -18% |

Given as comma-separated lines: part of the list above.
SMILES,"max response, negative = inhibition"
Cc1cc(C)c(C)c(OCCCN(C)C)c1,inconclusive: -31%
O=C(COc1ccc(F)cc1F)NNC(=O)Nc1cccc([N+](=O)[O-])c1,inconclusive: -31.8%
COc1cc(CN2CCCC(N3CCN(c4ccccc4C)CC3)C2)ccc1O (configuration not stated),inconclusive: -45.6%
CCOc1ccc(Br)cc1C1C(C(=O)OC)=C(N)Oc2cc(N(C)C)ccc21 (configuration not stated),inconclusive: -47.3%
O=C(c1ccccc1)C(C(=O)N1CCc2ccccc2C1)n1ccccc1=O (configuration not stated),inactive: -15.9%
COc1ccc(C2CC(=O)N(CCCN(C)CCc3ccc(OC)c(OC)c3)C2)cc1 (configuration not stated),inactive: -6.12%
CCOC(=O)C1(C(F)(F)F)N=C(c2cccnc2)OC(N2CCOCC2)=N1 (configuration not stated),active: -58.9%
COC(=O)[C@H](C(C)C)N(Cc1ccccc1)S(=O)(=O)CCN1CCN(c2ccccc2)CC1,inconclusive: -31.6%
O=C(COc1cccc(-n2cnnn2)c1)NC1CCCCC1,inactive: -3.11%
CCCOc1cccc(C(=O)N(Cc2ccc(OC)c(OC)c2)C2CCS(=O)(=O)C2)c1 (configuration not stated),inactive: -28.3%
Cc1ccccc1Cn1cccc1/C=C1/C(=N)N2C=CSC2=NC1=O,inconclusive: -43.3%
Cc1ccc(C(=O)Nc2ccc(C)c(S(=O)(=O)N3CCOCC3)c2)c(C)c1,inactive: 4.4%
